Assay results: paper doi:10.1101/2025.09.29.679403

Protein sequences, listed by entry. Tags and fused reporters are not part of them.
UniProt Q13148: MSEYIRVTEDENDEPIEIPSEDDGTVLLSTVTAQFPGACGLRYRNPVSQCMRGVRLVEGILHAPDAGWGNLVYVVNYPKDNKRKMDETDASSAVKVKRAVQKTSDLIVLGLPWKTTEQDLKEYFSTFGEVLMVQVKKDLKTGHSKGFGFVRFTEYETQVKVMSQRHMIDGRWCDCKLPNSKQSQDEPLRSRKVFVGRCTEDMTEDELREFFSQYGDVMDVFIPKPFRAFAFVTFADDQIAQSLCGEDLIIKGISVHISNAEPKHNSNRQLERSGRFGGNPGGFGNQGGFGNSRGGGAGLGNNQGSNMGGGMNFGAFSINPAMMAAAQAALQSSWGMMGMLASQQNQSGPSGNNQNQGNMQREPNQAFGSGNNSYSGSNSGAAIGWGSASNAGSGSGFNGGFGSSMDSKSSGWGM

Target: TAR DNA-binding protein-43 (TDP-43), endogenously tagged with eGFP (human (endogenous in BJFF.6 iPSC-derived neurons)) (UniProt Q13148)
Assay: affinity purification with mass spectrometry

B1: MATR3 (protein, UniProt P43243 1-847)
chain: MSKSFQQSSLSRDSQGHGRDLSAAGIGLLAAATQSLSMPASLGRMNQGTARLASLMNLGMSSSLNQQGAHSALSSASTSSHNLQSIFNIGSRGPLPLSSQHRGDADQASNILASFGLSARDLDELSRYPEDKITPENLPQILLQLKRRRTEEGPTLSYGRDGRSATREPPYRVPRDDWEEKRHFRRDSFDDRGPSLNPVLDYDHGSRSQESGYYDRMDYEDDRLRDGERCRDDSFFGETSHNYHKFDSEYERMGRGPGPLQERSLFEKKRGAPPSSNIEDFHGLLPKGYPHLCSICDLPVHSNKEWSQHINGASHSRRCQLLLEIYPEWNPDNDTGHTMGDPFMLQQSTNPAPGILGPPPPSFHLGGPAVGPRGNLGAGNGNLQGPRHMQKGRVETSRVVHIMDFQRGKNLRYQLLQLVEPFGVISNHLILNKINEAFIEMATTEDAQAAVDYYTTTPALVFGKPVRVHLSQKYKRIKKPEGKPDQKFDQKQELGRVIHLSNLPHSGYSDSAVLKLAEPYGKIKNYILMRMKSQAFIEMETREDAMAMVDHCLKKALWFQGRCVKVDLSEKYKKLVLRIPNRGIDLLKKDKSRKRSYSPDGKESPSDKKSKTDGSQKTESSTEGKEQEEKSGEDGEKDTKDDQTEQEPNMLLESEDELLVDEEEAAALLESGSSVGDETDLANLGDVASDGKKEPSDKAVKKDGSASAAAKKKLKKVDKIEELDQENEAALENGIKNEENTEPGAESSENADDPNKDTSENADGQSDENKDDYTIPDEYRIGPYQPNVPVGIDYVIPKTGFYCKLCSLFYTNEEVAKNTHCSSLPHYQKLKKFLNKLAEERRQKKET
binding: binds

These are yes or no findings as the source states them, for the method shown. In cells and extracts the contact can be indirect. These calls come from enrichment with a bait or labelling near it, and not all partners need be listed.
